No constants are given. Whether binding was seen depends on the method and setting. Some entries that bind do so weakly or less than the wild type.
Tests used:
Assay in all cases: two-hybrid; semiquantitative: generation time of cotransformed PJ yeast in liquid SC-Leu-Trp-His; pAD–NDUFC2 (WT or mutants) called bait, pBD–ND4 called prey; average of at least four independent experiments
[1] = biological target: NDUFC2-A (alanine at position 46), pAD fusion (human) (UniProt O95298)
[2] = biological target: NDUFC2-L (wild type, leucine at position 46), pAD fusion (human) (UniProt O95298)
[3] = biological target: NDUFC2-V (valine at position 46, second human allele), pAD fusion (human) (UniProt O95298)

Amino acid sequences for entries named in this document (tags omitted). A change or cut given only in a name is not applied to a line headed by its entry.
UniProt O95298: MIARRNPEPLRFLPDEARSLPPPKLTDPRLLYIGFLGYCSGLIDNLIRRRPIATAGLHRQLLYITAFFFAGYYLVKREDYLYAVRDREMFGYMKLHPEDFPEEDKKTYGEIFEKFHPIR
UniProt P03905: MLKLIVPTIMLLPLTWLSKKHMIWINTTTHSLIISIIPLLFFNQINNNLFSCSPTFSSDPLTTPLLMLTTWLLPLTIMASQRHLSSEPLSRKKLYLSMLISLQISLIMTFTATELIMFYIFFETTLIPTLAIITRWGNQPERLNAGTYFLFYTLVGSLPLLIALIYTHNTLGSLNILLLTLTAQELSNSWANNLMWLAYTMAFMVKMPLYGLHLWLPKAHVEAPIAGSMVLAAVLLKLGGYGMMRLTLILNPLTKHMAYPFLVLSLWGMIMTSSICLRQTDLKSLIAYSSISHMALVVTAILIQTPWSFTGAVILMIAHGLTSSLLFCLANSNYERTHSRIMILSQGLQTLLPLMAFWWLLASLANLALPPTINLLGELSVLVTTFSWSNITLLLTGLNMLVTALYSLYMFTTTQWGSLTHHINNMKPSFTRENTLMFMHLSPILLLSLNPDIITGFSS

Measured: binding

mtDNA-encoded complex I subunit ND4 (recoded to the cytoplasmic genetic code), pBD fusion (from UniProt P03905 1-459)
binds: all assays above

Source: PMC4224335
